Data from US4229466A, “Sesquiterpene derivatives having anti-complementary activity” (Otsuka Pharmaceutical Co., Ltd., priority 1977, dated 1980).
Some entries share one result that the patent states for a list of compounds.

System: Heymann-type Nephritis
Assay: Therapeutic effects on Heymann-type nephritis (proteinuria)
Type: in vivo, male Wistar rats
Details: test of Table 4; result in words
Procedure: Male Wistar rats with a body weight of 180 to 200 g were used in the test. Rat kidney cortex was extracted, and homogenized with an equal quantity by volume of a physiological saline solution. The homogenate was centrifuged at 1500 G for 1 hour. The supernatant liquid was purified in accordance with the method of T. S. […] The resulting mixture was injected intraperitoneally into isologous rats in an amount of 0.5 ml per rat. […] (This period was about 6 to 8 weeks.) […] CP was used as a comparison compound, and physiological saline solution was used as a control. Three replications were conducted for each test compound.

For `CC1CCC2C(C)(C)C(O)C(O)CC2(C)C12Cc1c(O)cc(C=C(C#N)C#N)c(C=C(C#N)C#N)c1O2` (centres unmarked) [(3), 6,7-Dihydroxy-2,5,5,8a-tetramethyl-1,2,3,4,4a,5,6,7,8,8a-decahydronaphthalene-1-spiro-2'-[6',7'-di-(2,2-dicyanovinyl)-4'-hydroxy-2',3'-dihydrobenzofuran]], the “activity of curing Heymann-type nephritis” value was “a substantial activity of curing Heymann-type nephritis”.
For `CC(C)OC(=O)C(C#N)=Cc1cc(O)c2c(c1C=C(C#N)C(=O)OC(C)C)OC1(C2)C(C)CCC2C(C)(C)C(O)C(O)CC21C` (centres unmarked) [(5), 6,7-Dihydroxy-2,5,5,8a-tetramethyl-1,2,3,4,4a,5,6,7,8,8a-decahydronaphthalene-1-spiro-2'-[6',7'-di-(2-cyano-2-isopropoxycarbonylvinyl)-4'-hydroxy-2',3'-dihydrobenzofuran]], the “activity of curing Heymann-type nephritis” value was “a substantial activity of curing Heymann-type nephritis”.
